Laboratory results: PMC9107693
Results are given in words; binding and its absence hold for the method and conditions named. Binding seen in cells or lysates may run through a third protein. Some results given as binding are weak or reduced against the parent protein; the word gives no strength.

Protein sequences, listed by entry. Tags and fused reporters are not part of them.
UniProt Q6PDQ2: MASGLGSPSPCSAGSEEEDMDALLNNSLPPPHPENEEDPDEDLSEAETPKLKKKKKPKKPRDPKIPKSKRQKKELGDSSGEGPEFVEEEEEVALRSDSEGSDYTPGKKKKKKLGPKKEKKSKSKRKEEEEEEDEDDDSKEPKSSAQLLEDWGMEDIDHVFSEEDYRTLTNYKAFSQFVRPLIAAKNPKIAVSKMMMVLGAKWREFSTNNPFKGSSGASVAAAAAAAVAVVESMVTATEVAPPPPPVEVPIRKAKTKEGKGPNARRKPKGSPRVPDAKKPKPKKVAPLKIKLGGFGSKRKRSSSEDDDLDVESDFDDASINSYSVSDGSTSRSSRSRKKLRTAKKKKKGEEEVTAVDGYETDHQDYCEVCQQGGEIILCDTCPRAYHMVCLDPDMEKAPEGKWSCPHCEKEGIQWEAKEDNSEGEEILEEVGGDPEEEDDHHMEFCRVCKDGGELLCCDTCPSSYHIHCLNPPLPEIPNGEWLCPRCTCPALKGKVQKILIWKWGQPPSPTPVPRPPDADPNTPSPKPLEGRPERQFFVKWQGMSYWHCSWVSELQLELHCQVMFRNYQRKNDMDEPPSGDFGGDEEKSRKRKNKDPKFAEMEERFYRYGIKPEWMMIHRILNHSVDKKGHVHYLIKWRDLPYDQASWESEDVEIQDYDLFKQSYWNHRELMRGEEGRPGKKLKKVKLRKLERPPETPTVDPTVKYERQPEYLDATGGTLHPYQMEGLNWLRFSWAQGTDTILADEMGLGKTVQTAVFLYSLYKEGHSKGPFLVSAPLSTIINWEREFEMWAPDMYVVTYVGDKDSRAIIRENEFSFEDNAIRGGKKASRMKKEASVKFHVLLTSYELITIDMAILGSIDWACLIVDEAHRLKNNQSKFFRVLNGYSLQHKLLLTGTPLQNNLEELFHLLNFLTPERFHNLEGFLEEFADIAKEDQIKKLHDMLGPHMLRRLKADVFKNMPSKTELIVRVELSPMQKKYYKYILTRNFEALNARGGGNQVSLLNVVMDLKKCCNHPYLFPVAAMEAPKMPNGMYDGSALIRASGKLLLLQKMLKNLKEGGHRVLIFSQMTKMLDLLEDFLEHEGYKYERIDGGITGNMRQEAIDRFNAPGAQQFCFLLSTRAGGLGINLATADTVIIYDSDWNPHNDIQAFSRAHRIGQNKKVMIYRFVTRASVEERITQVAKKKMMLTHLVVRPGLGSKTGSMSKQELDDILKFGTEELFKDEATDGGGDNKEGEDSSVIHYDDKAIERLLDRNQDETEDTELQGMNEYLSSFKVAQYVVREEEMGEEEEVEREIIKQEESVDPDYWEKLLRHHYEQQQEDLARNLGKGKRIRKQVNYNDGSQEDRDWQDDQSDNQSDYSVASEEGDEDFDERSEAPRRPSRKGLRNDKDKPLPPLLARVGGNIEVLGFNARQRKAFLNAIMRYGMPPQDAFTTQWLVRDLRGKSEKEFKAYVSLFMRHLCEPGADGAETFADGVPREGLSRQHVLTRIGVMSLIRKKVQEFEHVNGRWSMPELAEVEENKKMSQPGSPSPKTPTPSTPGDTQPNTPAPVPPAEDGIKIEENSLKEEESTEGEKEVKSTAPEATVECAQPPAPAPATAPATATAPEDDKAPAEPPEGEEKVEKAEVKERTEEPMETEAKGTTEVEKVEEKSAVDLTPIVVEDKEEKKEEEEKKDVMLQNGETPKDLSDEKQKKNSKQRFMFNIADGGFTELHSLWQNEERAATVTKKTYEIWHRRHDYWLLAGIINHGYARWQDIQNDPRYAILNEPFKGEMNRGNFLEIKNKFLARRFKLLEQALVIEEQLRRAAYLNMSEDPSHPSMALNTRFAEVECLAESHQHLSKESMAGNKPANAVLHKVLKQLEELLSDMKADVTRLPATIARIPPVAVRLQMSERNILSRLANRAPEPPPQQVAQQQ
UniProt P70288: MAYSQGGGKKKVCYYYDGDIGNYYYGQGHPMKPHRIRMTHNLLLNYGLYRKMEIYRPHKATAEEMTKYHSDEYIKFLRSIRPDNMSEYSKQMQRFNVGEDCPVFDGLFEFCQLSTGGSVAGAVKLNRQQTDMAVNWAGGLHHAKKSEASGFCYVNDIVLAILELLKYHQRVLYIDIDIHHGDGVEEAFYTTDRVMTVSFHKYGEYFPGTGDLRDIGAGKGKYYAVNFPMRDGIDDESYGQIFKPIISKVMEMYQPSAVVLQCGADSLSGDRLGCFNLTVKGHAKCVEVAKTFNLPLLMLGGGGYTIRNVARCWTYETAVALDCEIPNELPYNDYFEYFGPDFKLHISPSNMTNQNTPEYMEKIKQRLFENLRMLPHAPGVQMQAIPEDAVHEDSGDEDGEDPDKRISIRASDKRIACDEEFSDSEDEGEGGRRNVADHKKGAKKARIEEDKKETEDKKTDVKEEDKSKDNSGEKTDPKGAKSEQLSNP
UniProt Q8K4B0: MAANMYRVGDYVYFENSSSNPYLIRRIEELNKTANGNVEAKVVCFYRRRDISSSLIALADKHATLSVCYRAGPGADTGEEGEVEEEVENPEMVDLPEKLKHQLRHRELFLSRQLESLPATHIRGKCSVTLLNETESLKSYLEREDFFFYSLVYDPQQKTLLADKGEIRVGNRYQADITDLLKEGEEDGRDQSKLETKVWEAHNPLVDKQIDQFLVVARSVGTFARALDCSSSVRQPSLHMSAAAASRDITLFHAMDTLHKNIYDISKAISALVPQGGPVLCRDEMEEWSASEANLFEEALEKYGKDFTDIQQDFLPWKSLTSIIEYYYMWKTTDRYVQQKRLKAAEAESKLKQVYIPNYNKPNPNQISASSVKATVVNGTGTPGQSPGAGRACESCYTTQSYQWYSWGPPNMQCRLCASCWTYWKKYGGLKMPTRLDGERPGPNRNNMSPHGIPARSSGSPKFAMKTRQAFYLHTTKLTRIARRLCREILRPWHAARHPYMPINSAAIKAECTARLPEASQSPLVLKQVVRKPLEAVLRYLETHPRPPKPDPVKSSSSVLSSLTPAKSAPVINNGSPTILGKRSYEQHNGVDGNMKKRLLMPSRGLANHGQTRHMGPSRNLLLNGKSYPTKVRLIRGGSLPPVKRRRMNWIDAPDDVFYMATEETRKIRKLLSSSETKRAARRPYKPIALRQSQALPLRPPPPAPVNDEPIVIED

What was measured:
[1] = biological target: Chd4 (chromodomain-helicase-DNA-binding 4) (mouse (endogenous in testis cells)) (UniProt Q6PDQ2); experiment: co-IP; anti-Chd4 as bait, non-specific IgG as bait control; enriched fractions of Thy1.2 and c-Kit spermatogonia together, and the flow-through; detection by western blot
[2] = biological target: Chd4 (chromodomain-helicase-DNA-binding 4) (mouse (endogenous in testis cells)) (UniProt Q6PDQ2); experiment: co-IP; anti-Chd4 immunoprecipitation from testis lysates of wild type or ddx4-chd3-/- mice (RIPA buffer, 1 mg protein, protein G magnetic beads); detection by western blot

| binding [1] | binding [2] | Substance |
| --- | --- | --- |
| binds | binds | Hdac2a (from UniProt P70288 1-488) |
| binds | – | Mta1 (from UniProt Q8K4B0 1-715) |
